Results on 60 compounds are retold here after PubChem BioAssay AID445 (National Center for Advancing Translational Sciences (NCATS), 2006).

The test in a line: IkB Signaling. Particulars: ABC-DLBCL IkBa-CBG/CBR dual luciferase ratio (green luciferase fused to IkBa over red control in OCI-Ly3 lymphoma cells), 4 h. The procedure, abridged:
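Luminescence ratio of IκBα-fused green versus native red beetle luciferase in OCI-Ly3 cells, 4 h post-doxycycline with compound; red signal alone, scaled from basal (0%) to zero light (-100%), flagged nonspecific or cytotoxic effects.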

Where [1] appears, read: measured here: control luc red channel unless noted.
The mark [2] stands for this setting: measured here: IkB-luc green channel.
Where [3] appears, read: measured here: control luc red channel.

For orientation: AC50 means the midpoint of the concentration-response curve, whichever way the signal moves.

The structures appear in SMILES notation. Where “and” joins values, the source holds several entries; their conditions need not be identical. Identical values can stand only once. Some of the results follow. These are further read-outs of the screen, such as a control signal, another cell line or another target. No call is given for them. Most of these compounds were active or inconclusive in the main read-out, so they are no random draw. Potencies come from curve fits of mixed quality, noted in brackets.

For the compound `CCOc1ccc(CNC(=O)c2ccc3nc(Cc4ccc(OC)cc4)oc3c2)cc1OC`, under setting [1], the concentration at half-maximal activity (AC50) is 15.8 µM [falling, partial curve]. On to `CN(C(=O)CSc1nnc2[nH]c(=O)cc(-c3ccccc3)n12)c1ccccc1`, for which the AC50 is 3.16 µM [rising, partial curve] under setting [2] and 3.98 µM [rising, partial curve] under setting [3].

As for `COCCNC(=O)c1ccc2c(c1)N(Cc1cccc(Cl)c1)C(=O)c1ccccc1S2=O` (stereo unspecified), the concentration at half-maximal activity (AC50) under setting [1] is 39.8 µM [falling, single point]. On to `Fc1ccc(CNc2ncnc3c2c(-c2ccccc2)cn3-c2ccccc2)cc1`, for which the AC50 by setting is: under setting [2], 6.31 µM [rising, single point]; under setting [3], 7.94 µM [rising, single point]. As for `Cc1ccc(C)c(N2CCN(C(=O)CN3C(=O)CSc4c3c(C)nn4-c3ccccc3)CC2)c1`, under setting [1], the concentration at half-maximal activity (AC50) was 31.6 µM [falling, partial curve].

For `Cc1c2cnn(-c3ccccc3)c(=O)c2c(C)n1CCCC(=O)Nc1ccc(F)cc1F`, under setting [1], the AC50 was 0.251 µM [falling, full curve]. Consider `COc1ccccc1NC(=O)N(Cc1ccco1)Cc1cc2c(C)ccc(C)c2[nH]c1=O`, for which the AC50 under setting [1] was 15.8 µM [falling, partial curve].

Consider `O=C(c1ccc2c(Cl)c3c(nc2c1)CCCC3)N1CCN(c2ccccc2)CC1`, for which the half-maximal activity concentration (AC50) under setting [1] was 15.8 µM [falling, partial curve]. As for `CCOc1ccccc1NS(=O)(=O)c1c(-c2ccc(C)cc2)csc1C(=O)OC`, the AC50 under setting [1] was 10 µM [falling, full curve]. On to `COc1ccc(-c2nc(SCC(=O)NCCCc3ccccc3)n[nH]2)cc1`, for which the AC50 under setting [1] was 25.1 µM [falling, single point]. With `CCN(CC)CCCNC(=O)c1oc2c(c1C)-c1nn(Cc3ccc(Cl)cc3)cc1CC2`, the concentration at half-maximal activity (AC50) under setting [1] is 15.8 µM [falling, single point].

Consider `COc1ccc(NC(=O)CCc2c(C)nn(-c3ccc(N4CCOCC4)nn3)c2C)cc1Cl`, for which the AC50 under setting [1] was 6.31 µM [rising, single point].

On to `Cc1cccc(-c2noc(C3CC(=O)N(c4ccc5c(c4)OCCO5)C3)n2)c1` (stereo unspecified), for which, under setting [1], the AC50 is 39.8 µM [falling, single point]. Same read-out and setting: with `COc1ccc(NC(=O)CSc2ncn(-c3ccccc3)n2)cc1Cl` the figure was 39.8 µM [falling, single point]; with `COc1ccc(N(C)C(=O)NCc2noc3ccc(C)cc23)c(OC)c1`, 25.1 µM [falling, single point]. As for `CCCNC(=O)Nc1cc(C(=O)NCc2cccc(OCC)c2)ccc1N1CCCC1`, the AC50 under setting [1] is 20 µM [falling, partial curve]. For `COc1ccccc1NC(=O)CSCc1cc(=O)c2c(C)cc(C)cc2[nH]1`, the AC50 under setting [1] was 15.8 µM [falling, partial curve].

Turning to `CC(C)(C)C1CCc2nc(NC(=O)Cc3ccc(Cl)cc3)sc2C1` (stereo unspecified), under setting [1], the AC50 is 0.794 µM [rising, full curve]. In the case of `Cc1cccc(NC(=O)C2CCCN(S(=O)(=O)c3c(C)noc3/C=C/N(C)C)C2)c1C` (stereo unspecified), under setting [1], the half-maximal activity concentration (AC50) is 39.8 µM [falling, single point].

`CCCn1c(N)c(C(=O)CSc2nnc(Cc3ccccc3)o2)c(=O)n(C)c1=O`: under setting [1], the concentration at half-maximal activity (AC50) is 31.6 µM [falling, partial curve]. `CCC(=O)N1CCc2cc(Br)cc(S(=O)(=O)CCC(=O)Nc3ccccc3C)c21`: the AC50 under setting [1] is 0.316 µM [falling, single point]. Regarding `CCN(CC)C(=S)SSC(=S)N(CC)CC`, the AC50 is, setting by setting: under setting [2], 15.8 µM [rising, partial curve] and 12.6 µM [rising, partial curve]; under setting [3], 39.8 µM [falling, single point]. For `COc1ccc(C(=O)CN2C(=O)N(c3cc(C)cc(C)c3)S(=O)(=O)c3ccccc32)cc1`, the concentration at half-maximal activity (AC50) under setting [1] is 1 µM [rising, full curve, poor fit].

Take `Clc1ccc(CCNc2ncnc3c2c(-c2ccccc2)cn3-c2ccccc2)cc1`: the concentration at half-maximal activity (AC50) under setting [1] is 39.8 µM [falling, single point]. On the same count and under the same terms, with `CSc1ncnc2c1ncn2CC(=O)[C@H]1CC[C@H]2[C@H]3CCC4=CC(=O)CC[C@@]4(C)[C@@H]3CC[C@@]12C` the figure was 3.16 µM [falling, single point]; with `Cc1ccc(Nc2c(-c3ccc(C)cc3)nc3cnccn23)cc1`, 31.6 µM [falling, partial curve]; with `N#Cc1cccc(NC(=O)N2CCC(c3nc4c(nnn4Cc4cccc(Cl)c4)c(=O)[nH]3)CC2)c1`, 39.8 µM [falling, single point].

With `CCOC(=O)c1ccc(Nc2c(-c3ccc(O)cc3)nc3nc[nH]n23)cc1`, under setting [1], the AC50 is 39.8 µM [rising, single point]. Regarding `Cc1ccccc1CS(=O)(=O)Cc1ccc(C(=O)NCCc2ccccc2)o1`, the AC50 under setting [1] was 3.16 µM [falling, partial curve, poor fit]. Still for that read-out and setting: with `CCCn1c(=O)n(-c2ccccc2)c(=O)c2sc3ccccc3c21` the figure was 3.98 µM [rising, partial curve]; with `CCOc1ccc(CCNC(=O)CN2CCN(Cc3ccc(F)cc3Cl)C2=O)cc1OCC`, 25.1 µM [falling, single point]. In the case of `CCCOc1ccccc1C(=O)N1CCC(c2nc3ccccc3s2)CC1`, the AC50 under setting [1] was 31.6 µM [falling, partial curve]. Take `COC(=O)CN1C(=O)CSc2ccc(S(=O)(=O)Nc3ccc(Cl)cc3C)cc21`: the AC50 under setting [1] was 20 µM [falling, partial curve].

In the case of `CC(C)Cc1nn2c(=O)cc(COC(=O)c3cccc(NC(=O)CCc4ccccc4)c3)nc2s1`, the AC50 under setting [1] is 7.94 µM [falling, partial curve].

As to `Cc1ccc2ccc(C(Nc3ccccn3)c3ccccc3)c(O)c2n1` (stereo unspecified), the AC50 is, setting by setting: under setting [2], 3.98 µM [rising, single point]; under setting [3], 39.8 µM [falling, single point]. For `Cc1ccc(CCNC(=O)C2CCCN(Cc3nc(-c4cccc(Cl)c4)oc3C)C2)cc1` (stereo unspecified), the half-maximal activity concentration (AC50) under setting [1] was 25.1 µM [falling, partial curve]. For the compound `O=C(Cc1ccc(F)cc1)N1CCC(c2nc3c(nnn3Cc3ccc(Cl)cc3)c(=O)[nH]2)CC1`, the AC50 under setting [1] was 31.6 µM [falling, single point].

Regarding `COc1ccccc1S(=O)(=O)Cc1ccc(C(=O)N2CCN(c3ccc(C)cc3)C(C)C2)o1` (stereo unspecified), under setting [1], the concentration at half-maximal activity (AC50) was 12.6 µM [falling, partial curve].

With `COc1ccc(-c2noc(C3CC(=O)N(c4cc(C)cc(C)c4)C3)n2)cc1` (stereo unspecified), under setting [1], the half-maximal activity concentration (AC50) was 10 µM [falling, partial curve]. `Cc1ccc2nc(-c3ccccn3)c(Nc3ccc(F)cc3)n2c1`: the AC50 under setting [1] is 25.1 µM [falling, partial curve]. `COC(=O)c1sccc1NC(=O)CN1CCN(c2ccc(F)cc2)CC1`: under setting [1], the AC50 is 20 µM [falling, partial curve]. Consider `CCOC(=O)C1CCCN(c2ncnc3c2cnn3-c2ccc(C)c(Cl)c2)C1` (stereo unspecified), for which, under setting [1], the AC50 was 25.1 µM [falling, single point].

Consider `Cc1ccc(OCC(=O)Nc2ccc3c(c2)nc(CCN2CCOCC2)n3C)cc1`, for which the AC50 under setting [1] is 7.94 µM [falling, partial curve]. In the case of `CCOC(=O)c1ccc(NC(=O)c2oc3ccc4c(c3c2C)C(=O)CC(C)(CC)O4)cc1` (stereo unspecified), the AC50 under setting [1] was 0.398 µM [falling, full curve]. Take `Cn1c(=O)c2c(SCC(=O)NCc3ccco3)nc(-c3ccccc3Cl)nc2n(C)c1=O`: the AC50 under setting [1] is 2 µM [falling, full curve]. Consider `Cc1ccc(S(=O)(=O)N=C2SCCCS2)cc1`, for which the AC50 under setting [2] is 25.1 µM [rising, partial curve] and the AC50 under setting [3] is 39.8 µM [rising, single point]. Turning to `O=C(NC(O)C(=O)c1ccccc1)c1cccs1` (stereo unspecified), the AC50 under setting [1] is 25.1 µM [falling, partial curve].

With `CCc1ccccc1NC(=O)c1cc(S(=O)(=O)NCCc2ccc(OC)c(OC)c2)ccc1F`, the AC50 under setting [1] is 6.31 µM [rising, single point]. Still for that read-out and setting: under `COC(=O)c1cccc(NC(=O)Cc2coc3cc(OC)ccc23)c1` stands 15.8 µM [falling, partial curve]; under `O=C(CCCCCn1c(SCC(=O)c2ccccc2)nc2ccccc2c1=O)NCc1ccco1`, 2.51 µM [falling, full curve, poor fit]; under `CCOc1ccc(NC(=O)C(C)Sc2nnc3cc(C)c4ccccc4n23)cc1` (stereo unspecified), 15.8 µM [falling, single point]. With `COc1cccc(-c2nn(C)c3sc(C(=O)NCc4ccc5c(c4)OCO5)cc23)c1`, the AC50 under setting [1] is 1.26 µM [falling, partial curve].

For `CCCC(=O)c1c(C)c2ccccc2n1C`, the AC50 under setting [1] was 15.8 µM [rising, partial curve]. For `Cc1cccc(NC(=O)C(=O)NCC(c2cccnc2)N2CCOCC2)c1` (stereo unspecified), the AC50 under setting [1] is 20 µM [falling, partial curve].

On to `Cc1ccc(N2CCN(c3ccc(C)cc3)C2c2ccncc2)cc1`, for which, under setting [1], the AC50 was 25.1 µM [falling, partial curve]. With `CC(C)CCNC(=O)c1cccc(Nc2nc3ccccc3n3nnnc23)c1`, the AC50 under setting [1] was 31.6 µM [falling, single point]. Still for that read-out and setting: under `COc1ccc(Cl)cc1NC(=O)c1ccc2nc(Cc3ccccc3)oc2c1` stands 5.01 µM [falling, full curve, poor fit]. With `COC(=O)c1ccccc1NC(=O)CN1CCC(C(=O)c2ccc3c(c2)OCCO3)CC1`, the AC50 runs as follows: under setting [2], 2.51 µM [falling, partial curve, poor fit]; under setting [3], 7.94 µM [falling, partial curve].

For `Cc1ccc(Cl)cc1N1CCN(C(=O)C2CCN(S(=O)(=O)c3c(C)nn(C)c3C)CC2)CC1`, under setting [1], the AC50 was 7.94 µM [falling, partial curve].

On to `CCCCNC(=O)C1CCCN(Cc2nc(-c3ccc(Cl)cc3)oc2C)C1` (stereo unspecified), for which the concentration at half-maximal activity (AC50) under setting [1] was 20 µM [falling, partial curve].
